Measured values from article PMC5986769.

Protein sequences, listed by entry. Tags and fused reporters are not part of them. Residues count along the entry.
UniProt Q9R0G6, residues 20-755: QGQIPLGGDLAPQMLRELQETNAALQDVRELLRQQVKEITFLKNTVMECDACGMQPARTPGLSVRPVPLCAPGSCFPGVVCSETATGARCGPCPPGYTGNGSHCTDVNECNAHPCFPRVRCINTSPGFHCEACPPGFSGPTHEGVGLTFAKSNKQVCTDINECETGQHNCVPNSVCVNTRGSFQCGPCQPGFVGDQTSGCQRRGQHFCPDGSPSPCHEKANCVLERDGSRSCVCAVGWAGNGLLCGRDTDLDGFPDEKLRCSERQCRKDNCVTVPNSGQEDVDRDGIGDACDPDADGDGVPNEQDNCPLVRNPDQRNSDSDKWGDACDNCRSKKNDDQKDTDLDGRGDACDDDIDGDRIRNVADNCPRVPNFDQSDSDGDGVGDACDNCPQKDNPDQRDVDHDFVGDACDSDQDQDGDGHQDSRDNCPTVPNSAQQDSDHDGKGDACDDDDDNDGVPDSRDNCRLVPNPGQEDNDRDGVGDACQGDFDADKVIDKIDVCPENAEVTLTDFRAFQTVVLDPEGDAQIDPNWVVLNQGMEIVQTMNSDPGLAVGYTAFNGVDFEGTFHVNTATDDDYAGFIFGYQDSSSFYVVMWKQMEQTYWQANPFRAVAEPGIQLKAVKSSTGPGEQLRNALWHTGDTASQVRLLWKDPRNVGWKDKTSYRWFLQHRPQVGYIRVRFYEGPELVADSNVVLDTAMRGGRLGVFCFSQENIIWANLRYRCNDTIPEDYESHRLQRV
UniProt Q5XIH7: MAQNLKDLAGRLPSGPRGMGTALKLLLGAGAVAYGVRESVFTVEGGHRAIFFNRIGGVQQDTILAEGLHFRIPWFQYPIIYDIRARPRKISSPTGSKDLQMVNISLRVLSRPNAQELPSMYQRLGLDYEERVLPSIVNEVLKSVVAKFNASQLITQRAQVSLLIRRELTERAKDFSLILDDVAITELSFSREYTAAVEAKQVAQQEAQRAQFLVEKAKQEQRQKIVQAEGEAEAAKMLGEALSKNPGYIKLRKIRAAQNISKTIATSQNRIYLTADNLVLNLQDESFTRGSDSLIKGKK

Molecular target: Cartilage oligomeric matrix protein (COMP), full-length mouse, expressed from adenovirus (Ad-COMP) (mouse) (UniProt Q9R0G6)
Assay: affinity purification with mass spectrometry; mitochondria of COMP adenovirus-infected VSMCs; immunoprecipitation with COMP antibody against control IgG; seven Coomassie-stained bands excised, LC-MS/MS

binding: binds
Substance: Prohibitin 2, endogenous in VSMCs (from UniProt Q5XIH7 1-299)

These are yes or no findings as the source states them, for the method shown. Binding seen in cells or lysates may run through a third protein. A yes stands for co-enrichment or nearness to the bait. Other partners may have been found.
